According to PubChem BioAssay AID1347076 (National Center for Advancing Translational Sciences (NCATS), 2019):
Where “and” joins values, the source holds several entries; their conditions need not be identical. Equal values may be shown once. Among all 400,000 compounds or so, about 13,000 (3.2%) were called active. Inconclusive results, whose numbers are uncertain, are shown with a selection of clear calls. Calls come from the whole dose curve; as a rule, active = well fitted cell-killing curve with a large enough effect; inconclusive = small, poorly fitted or top-dose-only effect, or effect the other way; inactive = flat fitted curve, though single readings scatter. Potencies of inconclusive entries are doubtful fits and often do not repeat. Where a structure was tested more than once in an assay, its records may differ in their call.

Assay: qHTS assay for MDR1-selective chemotherapeutics: Primary screen using the drug-selected MDR subline cells KB-V1; note: nearly all actives have a fitted effect of over 60% in size
Conditions: KB-V1 MDR cells viability, CellTiter-Glo, 72 h; activity change, negative = cytotoxicity: at 46.1 µM (top of the series)
Outline: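 Cytotoxicity toward P-gp-expressing KB-V1 cells was determined as loss of CellTiter-Glo luminescence after 72 h at 37 degrees C. Compounds were tested in quantitative HTS format across a concentration range, with curves fitted to normalized data.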
% is set by controls: 0 for no effect and ±100 for the full control effect; potency is the fitted concentration of half-maximal effect.

SMILES | Potency | activity change, negative = cytotoxicity
COCCn1c(SCc2cc(C(C)=O)ccc2OC)nc2cc(Cl)ccc2c1=O | inconclusive: 5.17 µM [cytotoxic, partial curve, poor fit] | –
CCN(C(=O)COC(=O)c1cc([N+](=O)[O-])ccc1N1CCOCC1)c1ccccc1 | inconclusive: 2.91 µM [cytotoxic, partial curve, poor fit] | –
O=C(CSc1ccccc1C(=O)O)NCc1ccccc1 | inactive | –
O=C(OCc1ccccc1C(F)(F)F)c1cc([N+](=O)[O-])ccc1N1CCOCC1 | inconclusive: 29.1 µM [cytotoxic, single point] | –
O=C(NCc1ccccc1Cl)C(=O)NCC1OCCCN1S(=O)(=O)c1cccs1 (configuration not stated) | inconclusive: 9.2 µM [cytotoxic, partial curve, poor fit] | –
CN(C)c1ncc(S(=O)(=O)c2ccccc2)c(-c2ccccc2Cl)n1 | active: 18.4 µM | –
CCc1c(C(=O)N2CCN(c3ccccc3F)CC2)[nH]c(C)c1C(C)=O | inconclusive: 18.4 µM [cytotoxic, single point] | –
CCO[C@H]1OC(C(=O)NC2CC2)=C[C@@H](C2CCCCC2)[C@@H]1CCCO | inactive | –
Cc1ccc(C(OCC(O)CN2CCCCC2)c2ccccc2)cc1 (configuration not stated) | inactive | –
COc1ccc(-c2cc3nc(-c4ccccc4)cc(N4CCC5(CC4)OCCO5)n3n2)cc1 | inactive | –
COc1ccc(OC)c(NC(=O)CSc2nc(-c3ccccc3C)nc3cc(=O)[nH]n23)c1 | inconclusive: 29.1 µM [rising, single point] | –
CC1CCN(C(=O)CN2CCSc3ccccc32)CC1 | inactive | –
CSc1nccc(Nc2ccccc2)c1C#N | inactive | –
COc1ccc2cc(C(=O)NCCc3ccccc3)[nH]c2c1 | inconclusive: 8.2 µM [rising, partial curve] | –
Cc1ccccc1NC(=O)Nc1ccccc1N1CCCCC1 | inconclusive: 32.6 µM [cytotoxic, single point] | –
COc1ccccc1CNC(=O)c1ccc(OCC2CCCO2)cc1 (configuration not stated) | inconclusive: 14.6 µM [cytotoxic, partial curve] | –
COCCCn1c(SCc2cc(=O)[nH]c3ccccc23)nnc1-c1ccco1 | inconclusive: 13 µM [cytotoxic, partial curve, poor fit] | –
O=C(N/N=C/c1ccccc1C(=O)O)c1cccc(S(=O)(=O)N2CCOCC2)c1 | inconclusive: 29.1 µM [rising, single point] | –
Cc1ccc2c(c1C)OC(=O)CC2c1ccccc1 (configuration not stated) | inconclusive: 29.1 µM [rising, single point] | –
COc1ccc(S(=O)(=O)N2CCN(C(=O)c3cccs3)CC2)cc1OC | inconclusive: 29.1 µM [cytotoxic, single point] | –
O=C(Cc1ccccc1)Nc1c(C(=O)N2CCN(c3ccc(F)cc3)CC2)oc2ccccc12 | active: 11.6 µM | –
O=C(CCCN1C(=O)/C(=C\c2ccccc2)SC1=S)Nc1cccc(C(=O)O)c1 | inactive | –
COc1ccc(CNc2ccc3cc(S(=O)(=O)N4CCCCC4)ccc3n2)cc1 | inactive | –
CCC(=O)N1CCCc2cc(S(=O)(=O)N3CCC(C(=O)Nc4ccc(F)c(F)c4)CC3)ccc21 | inactive | –

SMILES | Potency | activity change, negative = cytotoxicity
N#Cc1cccc(C(=O)C(=O)N2CCN(C(=O)OCc3ccccc3)CC2)c1 | inconclusive: 20.6 µM [cytotoxic, partial curve, poor fit] | –
COc1ccc(NC(=O)[C@@H]2CC=C[C@@H]3CCN(Cc4ccc(Cl)c(Cl)c4)C(=O)[C@@H]32)cc1 | active: 23.1 µM and inconclusive: 23.1 µM [cytotoxic, single point] | –
Cn1cc(CN2CCCC(C(=O)Nc3cccc(-c4cc5ccccc5[nH]4)c3)C2)cn1 (configuration not stated) | inactive | –
CC(=O)c1ccc(N2CCN(C(=O)c3cc(-c4ccncc4)nc4ccc(Cl)cc34)CC2)cc1 | active: 9.2 µM | –
O=C(NC(=S)NC1CCC(O)CC1)c1ccco1 (configuration not stated) | inconclusive: 32.6 µM [cytotoxic, partial curve, poor fit] | –
CNC(=O)C(=O)Nc1cc2c3c(c1)CCN3C(=O)CC2 | inactive | –
Cc1cccc(Cn2c(CN3CCN(Cc4ccccc4)CC3)nc3c2c(=O)[nH]c(=O)n3C)c1 | inconclusive: 18.4 µM [cytotoxic, single point] | –
O=C(CSc1nncn1-c1ccccc1F)NC1CCCCC1 | active: 20.6 µM | –
CCOC(=O)c1cc(=O)n(Cc2ccccc2C)c2ccccc12 | inconclusive: 20.6 µM [cytotoxic, partial curve, poor fit] | –
CCOC(=O)C[C@H]1c2ccccc2S(=O)(=O)N1Cc1cccc(C(F)(F)F)c1 | active: 10.3 µM | –
CCc1ccc(C(=O)COC(=O)C2=NN(c3ccccc3)C(=O)CC2)cc1 | inconclusive: 29.1 µM [rising, single point] | –
CCO/C(C)=C1/SC(=S)NC1=O | inactive | –
Cc1ccc(NC(=O)c2cccs2)cc1NC(=O)c1ccc(F)cc1 | – | inconclusive: -25.4%
N#CC(C#N)=Cc1cnc(N2CCN(c3ccccc3)CC2)s1 | inactive | –
O=C(NC1CCCCCC1)c1cc2c(Cl)nc3ccccc3c2s1 | inconclusive: 1.46 µM [rising, full curve, poor fit] | –
CCOc1ccccc1NC(=O)C(NS(=O)(=O)c1ccc2c(c1)CCC(=O)N2)c1ccccc1 (configuration not stated) | inactive | –
Cn1ccnc1SCC(=O)Nc1cccc(S(=O)(=O)N2CCCCCC2)c1 | inconclusive: 18.4 µM [cytotoxic, single point] | –
Fc1ccc(NC(=S)N2CCSC2c2cccs2)cc1 (configuration not stated) | inconclusive: 9.2 µM [cytotoxic, partial curve, poor fit] | –
CCOCCOC(=O)c1[nH]c2c(c1C)C(=O)CC(c1ccccc1)C2 (configuration not stated) | active: 1.03 µM | –
CC(C)NC(=O)CC(=O)Nc1ccc2nc3n(c(=O)c2c1)CCCCC3 | inconclusive: 0.58 µM [rising, single point] | –
O=C(Nc1ccc2c(c1)OCO2)c1csc([C@@H]2C[C@H](O)[C@@H](CO)O2)n1 | inconclusive: 23.1 µM [cytotoxic, partial curve, poor fit] | –
COc1cccc(OCC(O)CN2CCN(c3ccccn3)CC2)c1 (configuration not stated) | inactive | –
O=C(Nc1cccnc1)C(Cc1ccccc1)n1cccc1 (configuration not stated) | inactive | –
CC12CCC(=O)N1C(C(=O)NCc1ccc(Cl)cc1Cl)CS2 (configuration not stated) | inconclusive: 32.6 µM [cytotoxic, partial curve, poor fit] | –

SMILES | Potency | activity change, negative = cytotoxicity
c1ccc(COc2ncnc3c2ncn3CCCN2CCN(Cc3cccc4ccccc34)CC2)cc1 | inconclusive: 7.31 µM [cytotoxic, partial curve, poor fit] | –
Cc1ccccc1OCC(=O)NCC(=O)OCC(=O)c1ccc(-c2ccccc2)cc1 | inconclusive: 29.1 µM [rising, single point] | –
COc1ccc(CCNc2nc3c(c(=O)n(C)c(=O)n3C)n2C)cc1OC | active: 14.6 µM | –
Cc1nn(-c2ccccc2)c(=O)c2ccccc12 | inactive | –
COc1cccc(CN(C)CC(=O)Nc2cccc(C(F)(F)F)c2)c1OC | inconclusive: 9.2 µM [cytotoxic, partial curve] | –
Cc1sc2ncnc(Sc3ccccc3C(=O)Nc3ccc(C#N)cc3)c2c1C | inactive | –
CCOc1ccc(CC(=O)NCCc2csc(-c3ccc(C(F)(F)F)cc3)n2)cc1 | inconclusive: 7.31 µM [cytotoxic, partial curve] | –
Cc1ccc(S(=O)(=O)CCC(=O)Nc2cccc(S(=O)(=O)N3CCCCCC3)c2)cc1 | active: 9.2 µM | –
Cc1ccc(C(=O)NC(=S)N(C)Cc2ccccc2)cc1 | inconclusive: 16.4 µM [cytotoxic, single point] | –
O=[N+]([O-])c1ccc(N=Cc2c(O)ccc3ccccc23)cc1 | inconclusive: 11.6 µM [cytotoxic, partial curve, poor fit] | –
O=C(NCc1ccccc1)C1(C(F)(F)F)C/C(=C\CCO)CCCO1 (configuration not stated) | inconclusive: 20.6 µM [rising, single point] | –
CCN(c1cccc(C)c1)S(=O)(=O)c1ccc2c(c1)NC(=O)CCS2 | inconclusive: 5.8 µM [cytotoxic, full curve] | –
O=C(Cn1cnc2sc(-c3ccccc3)cc2c1=O)NCCc1ccccc1 | inconclusive: 25.9 µM [cytotoxic, partial curve, poor fit] | –
O=C(NCCCN1CCOCC1)c1ccc2c(=O)n(-c3ccc(F)c(Cl)c3)c(=S)[nH]c2c1 | inactive | –
CC(=O)NC1C(=O)N(CCN2CCOCC2)c2ccc(Br)cc21 (configuration not stated) | inactive | –
CCOC(=O)Nc1ccc2c(CN3CCN(S(=O)(=O)c4ccc(C(C)C)cc4)CC3)cc(=O)oc2c1 | inconclusive: 16.4 µM [rising, single point] | –
Cc1cccc(N(CC(=O)NCCSCc2ccc(Cl)cc2)S(C)(=O)=O)c1C | inactive | –
CCN(CC)CCOC(=O)C1(c2ccccc2)CCCC1 | inactive | –
Cc1cccc(N(Cc2cc3ccc(C)cc3[nH]c2=O)C(=O)c2ccco2)c1 | inconclusive: 8.2 µM [cytotoxic, partial curve] | –
CCOc1cc(/C=N/NC(=O)CCCC(=O)NC2CCCCC2)ccc1O | inactive | –
O=C(NCCCN1CCN(c2cccc(Cl)c2)CC1)Nc1ccccc1C(F)(F)F | inactive | –
COc1ccc(C(=O)COC(=O)c2ccc(NC(C)=O)cc2)cc1[N+](=O)[O-] | inconclusive: 29.1 µM [rising, single point] | –
Cc1cccc(C)c1NC(=O)CNc1ncnc2sc(C)c(C)c12 | inconclusive: 14.6 µM [cytotoxic, single point] | –
COc1ccc(CCN(C)C(=O)c2c(C)nn(CC(C)C)c2Cl)cc1OC | inconclusive: 7.31 µM [cytotoxic, partial curve] | –

Four records drawn at random from those above:
SMILES | Potency | activity change, negative = cytotoxicity
O=C(NCCCN1CCOCC1)c1ccc2c(=O)n(-c3ccc(F)c(Cl)c3)c(=S)[nH]c2c1 | inactive | –
CCOC(=O)Nc1ccc2c(CN3CCN(S(=O)(=O)c4ccc(C(C)C)cc4)CC3)cc(=O)oc2c1 | inconclusive: 16.4 µM [rising, single point] | –
COc1ccc(CCN(C)C(=O)c2c(C)nn(CC(C)C)c2Cl)cc1OC | inconclusive: 7.31 µM [cytotoxic, partial curve] | –
CCN(c1cccc(C)c1)S(=O)(=O)c1ccc2c(c1)NC(=O)CCS2 | inconclusive: 5.8 µM [cytotoxic, full curve] | –

Ordered by formula weight (rising): part of the list above
SMILES | Potency | activity change, negative = cytotoxicity
CCN(CC)CCOC(=O)C1(c2ccccc2)CCCC1 | inactive | –
N#CC(C#N)=Cc1cnc(N2CCN(c3ccccc3)CC2)s1 | inactive | –
O=C(Cc1ccccc1)Nc1c(C(=O)N2CCN(c3ccc(F)cc3)CC2)oc2ccccc12 | active: 11.6 µM | –
